PubChem BioAssay AID504793, Drosophila RNAi Screening Center – 2011
The deposit covers about 23,000 reagents; shown is an unselected part of those that have a named target and a result. Of all reagents, 62 (0.27%) were called active. 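Calls come from follow-up tests whose scores are not deposited, so confirmed genes may have low counts here; counts are not normalised per plate.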 The raw values are shown without normalisation. Reagents against one gene are numbered here. Reagent sequences are not shown.

Screen: 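Whole-genome screen for parts of the DNA damage checkpoint at G2/M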 (primary screen)
Cells: Drosophila S2R+ cells
Reagents: long dsRNA against Drosophila genes, about 0.25 µg dsRNA per well
Duration: 4 days of dsRNA, then 4 hours of drug before read-out
Treatment: doxorubicin 0.5 µM for 4 hours to cause double-strand breaks, in cells also given a low, harmless dose of dsRNA against nbs to sensitise the assay
Measured: 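Mitotic index as the number of phospho-histone H3-positive cells in each well following doxorubicin, given as raw counts without normalisation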
Direction: mitotic cells: higher = more cells in mitosis, weaker G2 arrest
Active means: 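Genes are called active only when high mitotic counts were reproduced with independent dsRNAs and mitosis was checked for delay without damage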
Calls: active = confirmed in follow-up tests; inactive = not confirmed

The first 2 records, to show the layout:
Myo10A #1 | mitotic cells, replicate 1 = 8; Outcome = inactive
Myo10A #2 | mitotic cells, replicate 1 = 14; Outcome = inactive

The list itself, from the start:
Myo10A #1 | mitotic cells, replicate 1 = 8; Outcome = inactive
Myo10A #2 | mitotic cells, replicate 1 = 14; Outcome = inactive
TbCMF46 | mitotic cells, replicate 1 = 10; Outcome = inactive
Naus #1 | mitotic cells, replicate 1 = 5; Outcome = inactive
Naus #2 | mitotic cells, replicate 1 = 6; Outcome = inactive
Naus #3 | mitotic cells, replicate 1 = 4; Outcome = inactive
CG13082 #1 | mitotic cells, replicate 1 = 3; Outcome = inactive
CG13082 #2 | mitotic cells, replicate 1 = 7; Outcome = inactive
CG5339 | mitotic cells, replicate 1 = 5; Outcome = inactive
CG8738 | mitotic cells, replicate 1 = 11; Outcome = inactive
Hip14 | mitotic cells, replicate 1 = 15; Outcome = inactive
ttk #1 | mitotic cells, replicate 1 = 5; Outcome = inactive
ttk #2 | mitotic cells, replicate 1 = 33; Outcome = inactive
ttk #3 | mitotic cells, replicate 1 = 14; Outcome = inactive
CG9518 #1 | mitotic cells, replicate 1 = 10; Outcome = inactive
CG9518 #2 | mitotic cells, replicate 1 = 5; Outcome = inactive
lncRNA:CR33942 #1 | mitotic cells, replicate 1 = 8; Outcome = inactive
lncRNA:CR33942 #2 | mitotic cells, replicate 1 = 9; Outcome = inactive
CG6424 #1 | mitotic cells, replicate 1 = 9; Outcome = inactive
CG6424 #2 | mitotic cells, replicate 1 = 6; Outcome = inactive
Mdr50 #1 | mitotic cells, replicate 1 = 7; Outcome = inactive
Mdr50 #2 | mitotic cells, replicate 1 = 3; Outcome = inactive
CG14312 | mitotic cells, replicate 1 = 6; Outcome = inactive
CG14785 | mitotic cells, replicate 1 = 7; Outcome = inactive
CYLD | mitotic cells, replicate 1 = 5; Outcome = inactive
HisCl1 | mitotic cells, replicate 1 = 5; Outcome = inactive
spdo #1 | mitotic cells, replicate 1 = 10; Outcome = inactive
spdo #2 | mitotic cells, replicate 1 = 6; Outcome = inactive
CG2955 | mitotic cells, replicate 1 = 4; Outcome = inactive
CG10357 | mitotic cells, replicate 1 = 6; Outcome = inactive
CG33107 | mitotic cells, replicate 1 = 11; Outcome = inactive
Listericin #1 | mitotic cells, replicate 1 = 3; Outcome = inactive
Listericin #2 | mitotic cells, replicate 1 = 4; Outcome = inactive
CG3732 #1 | mitotic cells, replicate 1 = 5; Outcome = inactive
CG3732 #2 | mitotic cells, replicate 1 = 6; Outcome = inactive
